{"source": "PubChem BioAssay AID493014", "about": "(National Center for Advancing Translational Sciences (NCATS), 2011)", "experiment": "qHTS Assay to Find Inhibitors of Chronic Active B-Cell Receptor Signaling", "conditions": "ABC-DLBCL IkBa-CBG/CBR reporter, luminescence ratio (green luciferase fused to IkBa over red control in TMD8 lymphoma cells), 4 h", "outline": "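Concentration-response series (up to 46 uM) were applied to TMD8 dual-reporter cells for 4 h at 37C with doxycycline. Green/red ratio, after filter-overlap correction, defined %Activity; red signal alone was normalised to basal cells and zero luminescence.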", "key": {"[1]": {"conditions": "measured here: CBR red luminescence, cell number"}, "[2]": {"conditions": "measured here: IkBa-CBG green luminescence"}}, "note": "The other results are listed elsewhere or left out. The main result of the screen is listed elsewhere. These columns were measured beside it and carry no call. Most of these compounds were active or inconclusive in the main read-out, so they are no random draw. Potencies come from curve fits of mixed quality, noted in brackets."}
{"smiles": "Cc1ccc(NC(=S)NNC(=O)c2cn(C)nc2C)cc1", "values": [{"measurement": "AC50", "setting": "[1]", "result": "8.91 µM [falling, partial curve]"}]}
{"smiles": "CCCCc1nnc(SCCSc2nnc(CCCC)n2N)n1N", "values": [{"measurement": "AC50", "setting": "[1]", "result": "5.8 µM [rising, full curve, poor fit]"}]}
{"smiles": "CC(=O)c1cccc(Oc2cc(NN3CCCCC3)c([N+](=O)[O-])cc2[N+](=O)[O-])c1", "values": [{"measurement": "AC50", "setting": "[1]", "result": "31.6 µM [rising, partial curve, poor fit]"}]}
{"smiles": "O=C(c1noc2c1CCc1ccccc1-2)N1CCOCC1", "values": [{"measurement": "AC50", "setting": "[1]", "result": "2.59 µM [rising, full curve]"}]}
{"smiles": "O=C(NNC(=O)c1ccccc1C(=O)O)c1ccc(O)cc1", "values": [{"measurement": "AC50", "setting": "[1]", "result": "0.2 µM [falling, full curve, poor fit]"}]}
{"smiles": "O=C(Nc1nc2cc3c(cc2s1)OCCO3)C1=COCCO1", "values": [{"measurement": "AC50", "setting": "[1]", "result": "14.1 µM [falling, partial curve]"}]}
{"smiles": "CC(C(=O)Nc1cc(C(F)(F)F)ccc1N1CCOCC1)N1C(=O)C2CC=CCC2C1=O", "note": "(centres undefined)", "values": [{"measurement": "AC50", "setting": "[1]", "result": "12.6 µM [rising, single point]"}]}
{"smiles": "Clc1ccc2nc(NC3=NCN(CCN4CCOCC4)CN3)nc(-c3ccccc3)c2c1", "values": [{"measurement": "AC50", "setting": "[1]", "result": "4.47 µM [falling, full curve]"}]}
{"smiles": "Cc1ccc(-c2nc(SCC(=O)Nc3cc(S(=O)(=O)N4CCCCC4)ccc3Cl)n[nH]2)cc1", "values": [{"measurement": "AC50", "setting": "[1]", "result": "29.1 µM [falling, single point]"}]}
{"smiles": "CNC(=S)N/N=C/c1ccco1", "values": [{"measurement": "AC50", "setting": "[2]", "result": "31.6 µM [falling, partial curve, poor fit]"}]}
{"smiles": "Cc1c(C(=O)Nc2ccc(OC(F)(F)F)cc2)sc2nc3n(c(=O)c12)CCC3", "values": [{"measurement": "AC50", "setting": "[1]", "result": "14.1 µM [rising, single point]"}]}
{"smiles": "COC(=O)c1sc2nc(C)cc(C)c2c1N", "values": [{"measurement": "AC50", "setting": "[1]", "result": "10 µM [falling, partial curve, poor fit]"}, {"measurement": "AC50", "setting": "[2]", "result": "2.51 µM [rising, partial curve, poor fit]"}]}
{"smiles": "COC(=O)C1(C(C[N+](=O)[O-])c2ccco2)C(=O)NCC1c1ccccc1", "note": "(centres undefined)", "values": [{"measurement": "AC50", "setting": "[1]", "result": "35.5 µM [rising, single point]"}]}
{"smiles": "C=CCSc1ncccc1C(=O)NCCc1ccccc1", "values": [{"measurement": "AC50", "setting": "[1]", "result": "35.5 µM [rising, single point]"}]}
{"smiles": "CCCCCN=Cc1c(C)[nH]n(-c2nc3ccccc3s2)c1=O", "values": [{"measurement": "AC50", "setting": "[1]", "result": "7.94 µM [falling, partial curve]"}]}
{"smiles": "COC(=O)c1ccc(N=Nc2c(C)[nH]n(-c3ccccc3)c2=O)cc1", "values": [{"measurement": "AC50", "setting": "[1]", "result": "1.26 µM [falling, full curve]"}]}
{"smiles": "Cc1cc(=O)oc2cc(OCC(=O)N/N=C/c3ccccc3O)ccc12", "values": [{"measurement": "AC50", "setting": "[1]", "result": "3.55 µM [rising, partial curve, poor fit]"}]}
{"smiles": "COc1ccc(NC(=O)CN(c2cc(C)cc(C)c2)S(=O)(=O)c2c(C)noc2C)cc1", "values": [{"measurement": "AC50", "setting": "[1]", "result": "0.206 µM [falling, partial curve, poor fit]"}]}
